PubChem BioAssay AID1224828, NIAID, 2016

- Screen: 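Regulators linking TLR4 signalling to p65 nuclear translocation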 (primary screen)
- Cells: mouse RAW264.7 G9 macrophage reporter cells (GFP-p65, Tnf promoter-mCherry)
- Reagent: siRNA pool against mouse genes, 100 nM
- Timing: 2 days siRNA transfection, then 40 min LPS before fixation
- Treatment: LPS (Salmonella minnesota R595) at 10 ng/ml
- Read-out: 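Microscopy ratio of nuclear to perinuclear-ring GFP-p65 signal, scaled to the plate median; gene score is the average of two replicate robust z-scores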
- Scale: p65 translocation robust z-score: higher = more nuclear NF-kappaB p65 after LPS than the plate median; nuclear/cytoplasmic p65 ratio: higher = more nuclear NF-kappaB p65
- Call rule: 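Called active when z exceeds 3.3 or falls under -1.56 (median of Tlr4 controls), giving activity score of at least 50; no calls for control wells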
- Calls: active = hit (p65 shift raised or lowered); inactive = no clear change
In all, the deposit lists about 17,000 reagents; below is a part drawn at random. Of all reagents, 762 (4.5%) are marked active. 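Active calls include both raised and lowered p65 entry, mostly lowered; wells with fewer than 50 cells lack a z-score.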 Raw values are not corrected between plates.

target gene	PubChem SID	p65 translocation robust z-score	nuclear/cytoplasmic p65 ratio, rep 1	nuclear/cytoplasmic p65 ratio, rep 2	low cell count flag	Outcome
Zfp111 (zinc finger protein 111)	SID315471645	0.96	0	1.36	enough cells to score	inactive
Zfp420 (zinc finger protein 420)	SID315479046	-0.1	1.51	1.57	enough cells to score	inactive
Epx (eosinophil peroxidase)	SID315466543	-0.07	1.41	1.4	enough cells to score	inactive
Mrnip (MRN complex interacting protein)	SID315473398		1.25	1.22	fewer than 50 cells per well; well left out of scoring	inactive
Taf1c	SID315469572	0.34	1.62	1.52	enough cells to score	inactive
Xylt1 (xylosyltransferase 1)	SID315479102	0.79	1.47	1.39	enough cells to score	inactive
Gpr146 (G protein-coupled receptor 146)	SID315475694		1.5	1.76	fewer than 50 cells per well; well left out of scoring	inactive
Gpr146 (G protein-coupled receptor 146)	SID315481254	-1.32	1.3	1.43	enough cells to score	inactive
Gata3 (GATA binding protein 3)	SID315466838	0.15	1.47	1.37	enough cells to score	inactive
Mrps24 (mitochondrial ribosomal protein S24)	SID315472117	-1.3	1.61	1.37	enough cells to score	inactive
Clmb (calcimembrin)	SID315473667	0.26	1.21	1.45	enough cells to score	inactive
Hace1	SID315477598	-0.43	1.47	1.82	enough cells to score	inactive
Amacr (alpha-methylacyl-CoA racemase)	SID315467795	0.51	1.73	1.67	enough cells to score	inactive
Utf1 (undifferentiated embryonic cell transcription factor 1)	SID315469957	0.98	1.66	1.63	enough cells to score	inactive
Gpx2 (glutathione peroxidase 2)	SID315467007	1.53	1.63	1.57	enough cells to score	inactive
Clptm1l (CLPTM1-like)	SID315478188	0.8	1.6	1.58	enough cells to score	inactive
Or4a2 (olfactory receptor family 4 subfamily A member 2)	SID315480586		1.68	1.45	fewer than 50 cells per well; well left out of scoring	inactive
Pmp22 (peripheral myelin protein 22)	SID315468604	-0.11	1.45	1.43	enough cells to score	inactive
Rnf222 (ring finger protein 222)	SID315481217	-0.25	1.41	1.49	enough cells to score	inactive
Mt2 (metallothionein 2)	SID315468004	0.27	1.49	1.37	enough cells to score	inactive
Yme1l1 (YME1-like 1 (S. cerevisiae))	SID315470590	-0.66	1.4	1.43	enough cells to score	inactive
Eif2b4 (eukaryotic translation initiation factor 2B, subunit 4 delta)	SID315466471	0.1	1.54	1.32	enough cells to score	inactive
Rcc2 (regulator of chromosome condensation 2)	SID315476757	7.23	1.24	2.43	enough cells to score	active
Krt85 (keratin 85)	SID315471098	1.78	1.41	1.67	enough cells to score	inactive
Usp2 (ubiquitin specific peptidase 2)	SID315471056	0.9	1.6	1.67	enough cells to score	inactive
Cyp4a14 (cytochrome P450, family 4, subfamily a, polypeptide 14)	SID315466248	-0.28	1.47	1.81	enough cells to score	inactive
Sp3os (trans-acting transcription factor 3, opposite strand)	SID315473167	0.33	1.48	1.42	enough cells to score	inactive
1700020L24Rik (RIKEN cDNA 1700020L24 gene)	SID315472366		1.37	1.29	fewer than 50 cells per well; well left out of scoring	inactive
Ncald (neurocalcin delta)	SID315470984	-0.53	1.64	1.56	enough cells to score	inactive
Smarce1 (SWI/SNF related BAF chromatin remodeling complex subunit E1)	SID315471775	-0.05	1.62	1.48	enough cells to score	inactive
Golgb1 (golgin B1)	SID315478328	-0.02	1.38	1.42	enough cells to score	inactive
Adora2a (adenosine A2a receptor)	SID315465317	0.5	1.58	1.65	enough cells to score	inactive
Poli (polymerase (DNA directed), iota)	SID315470421	-0.59	1.29	1.16	enough cells to score	inactive
Sgce (sarcoglycan, epsilon)	SID315469205	-0.19	1.48	1.57	enough cells to score	inactive
Acss2 (acyl-CoA synthetase short-chain family member 2)	SID315472024	-0.47	1.58	1.52	enough cells to score	inactive
Dapk1 (death associated protein kinase 1)	SID315473854		1.61	1.24	fewer than 50 cells per well; well left out of scoring	inactive
Col12a1 (collagen, type XII, alpha 1)	SID315466047	0.2	1.5	1.4	enough cells to score	inactive
D930020B18Rik (RIKEN cDNA D930020B18 gene)	SID315477996	-0.48	1.45	1.53	enough cells to score	inactive
Sufu (SUFU negative regulator of hedgehog signaling)	SID315470312		1.43	1.4	fewer than 50 cells per well; well left out of scoring	inactive
Cnbp (cellular nucleic acid binding protein)	SID315466024	-0.18	1.34	1.36	enough cells to score	inactive
AI931714	SID315482025	0.27	1.52	1.86	enough cells to score	inactive
Tdrp (testis development related protein)	SID315474474	-1.53	1.21	1.26	enough cells to score	inactive
Chchd10 (coiled-coil-helix-coiled-coil-helix domain containing 10)	SID315476363		1.88	1.75	fewer than 50 cells per well; well left out of scoring	inactive
Abca16 (ATP-binding cassette, sub-family A member 16)	SID315479108	-0.31	1.49	1.71	enough cells to score	inactive
Pax5 (paired box 5)	SID315468394	-0.17	1.51	1.31	enough cells to score	inactive
Insl6 (insulin-like 6)	SID315470571	-0.93	1.31	1.3	enough cells to score	inactive
Csrnp2 (cysteine-serine-rich nuclear protein 2)	SID315477498	-2.52	1.08	1.42	enough cells to score	active
Ing2 (inhibitor of growth family, member 2)	SID315473768	0.15	1.49	1.4	enough cells to score	inactive
Prrt3 (proline-rich transmembrane protein 3)	SID315477648	-0.27	1.59	1.45	enough cells to score	inactive
Socs5 (suppressor of cytokine signaling 5)	SID315471559	0.95	1.71	1.6	enough cells to score	inactive
Tmod4 (tropomodulin 4)	SID315470865		1.31	1.04	fewer than 50 cells per well; well left out of scoring	inactive
Pik3c2a	SID315468508	0.08	1.61	1.39	enough cells to score	inactive
A930018P22Rik (RIKEN cDNA A930018P22 gene)	SID315473472	2	1.63	1.81	enough cells to score	inactive
Gdap10 (ganglioside-induced differentiation-associated-protein 10)	SID315466864	-0.94	1.47	1.32	enough cells to score	inactive
Klf7 (Kruppel-like transcription factor 7 (ubiquitous))	SID315475925	1.23	1.54	1.53	enough cells to score	inactive
Or10p21 (olfactory receptor family 10 subfamily P member 21)	SID315480496		1.44	1.26	fewer than 50 cells per well; well left out of scoring	inactive
Zfta (zinc finger translocation associated)	SID315476751		1.77	1.69	fewer than 50 cells per well; well left out of scoring	inactive
Flcn (folliculin)	SID315478031	-0.17	1.62	1.55	enough cells to score	inactive
Usp22 (ubiquitin specific peptidase 22)	SID315478035	-0.86	1.47	1.31	enough cells to score	inactive

10 entries already listed, arranged by “nuclear/cytoplasmic p65 ratio, rep 2”, low to high:
target gene	PubChem SID	p65 translocation robust z-score	nuclear/cytoplasmic p65 ratio, rep 1	nuclear/cytoplasmic p65 ratio, rep 2	low cell count flag	Outcome
Eif2b4 (eukaryotic translation initiation factor 2B, subunit 4 delta)	SID315466471	0.1	1.54	1.32	enough cells to score	inactive
Mt2 (metallothionein 2)	SID315468004	0.27	1.49	1.37	enough cells to score	inactive
Pmp22 (peripheral myelin protein 22)	SID315468604	-0.11	1.45	1.43	enough cells to score	inactive
Yme1l1 (YME1-like 1 (S. cerevisiae))	SID315470590	-0.66	1.4	1.43	enough cells to score	inactive
Or4a2 (olfactory receptor family 4 subfamily A member 2)	SID315480586		1.68	1.45	fewer than 50 cells per well; well left out of scoring	inactive
Rnf222 (ring finger protein 222)	SID315481217	-0.25	1.41	1.49	enough cells to score	inactive
Clptm1l (CLPTM1-like)	SID315478188	0.8	1.6	1.58	enough cells to score	inactive
Krt85 (keratin 85)	SID315471098	1.78	1.41	1.67	enough cells to score	inactive
Usp2 (ubiquitin specific peptidase 2)	SID315471056	0.9	1.6	1.67	enough cells to score	inactive
Rcc2 (regulator of chromosome condensation 2)	SID315476757	7.23	1.24	2.43	enough cells to score	active
